Experimental data: PMC3156801
No constants are given. Whether binding was seen depends on the method and setting. Binding seen in cells or lysates may run through a third protein. Binding can be weak; no strength is given. Where a sequence is shown, tags or fusion partners need not be part of it.

Biological target: Potorous tridactylus CPD photolyase (Potorous tridactylus)
Experiment: co-IP; PtCPD-PL precipitated with anti-PtCPD-PL antibodies from HEK293T cells transiently expressing PtCPD-PL with Flag-Clock or Flag-Bmal1; immunoblot with anti-FLAG and anti-PtCPD-PL antibodies

B1: FLAG-CLOCK (protein, UniProt O08785 1-855)
chain: MVFTVSCSKMSSIVDRDDSSIFDGLVEEDDKDKAKRVSRNKSEKKRRDQFNVLIKELGSMLPGNARKMDKSTVLQKSIDFLRKHKETTAQSDASEIRQDWKPTFLSNEEFTQLMLEALDGFFLAIMTDGSIIYVSESVTSLLEHLPSDLVDQSIFNFIPEGEHSEVYKILSTHLLESDSLTPEYLKSKNQLEFCCHMLRGTIDPKEPSTYEYVRFIGNFKSLTSVSTSTHNGFEGTIQRTHRPSYEDRVCFVATVRLATPQFIKEMCTVEEPNEEFTSRHSLEWKFLFLDHRAPPIIGYLPFEVLGTSGYDYYHVDDLENLAKCHEHLMQYGKGKSCYYRFLTKGQQWIWLQTHYYITYHQWNSRPEFIVCTHTVVSYAEVRAERRRELGIEESLPETAADKSQDSGSDNRINTVSLKEALERFDHSPTPSASSRSSRKSSHTAVSDPSSTPTKIPTDTSTPPRQHLPAHEKMTQRRSSFSSQSINSQSVGPSLTQPAMSQAANLPIPQGMSQFQFSAQLGAMQHLKDQLEQRTRMIEANIHRQQEELRKIQEQLQMVHGQGLQMFLQQSNPGLNFGSVQLSSGNSNIQQLTPVNMQGQVVPANQVQSGHISTGQHMIQQQTLQSTSTQQSQQSVMSGHSQQTSLPSQTPSTLTAPLYNTMVISQPAAGSMVQIPSSMPQNSTQSATVTTFTQDRQIRFSQGQQLVTKLVTAPVACGAVMVPSTMLMGQVVTAYPTFATQQQQAQTLSVTQQQQQQQQQPPQQQQQQQQSSQEQQLPSVQQPAQAQLGQPPQQFLQTSRLLHGNPSTQLILSAAFPLQQSTFPPSHHQQHQPQQQQQLPRHRTDSLTDPSKVQPQ
With B1 the binding was “binds”.
